# Data as given in PubChem BioAssay AID602196 (INSERM, 2012)
# Purpose: 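Modifiers of cisplatin sensitivity in A549 cells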
# Cell system: human A549 lung cancer cells
# Reagent: siRNA pair against human genes
# Timing: 48 h transfection before cisplatin; time from cisplatin to read-out not stated
# Challenge: cisplatin at a dose killing half of control-siRNA cells; exact dose and duration not given
# Measurement: 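Cisplatin cell death as a shift from the 50% death seen with control siRNA; siRNAs toxic or growth-blocking alone scored 0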
# Scale: two-siRNA summed score (-2 to +2): higher = both siRNAs protect from cisplatin killing; -2 means both sensitise; mean protection from cisplatin (shift in death) and protection from cisplatin (shift in death), siRNA C and protection from cisplatin (shift in death), siRNA D: higher = protection from cisplatin killing
# Hit rule: 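Each siRNA scores 0 if harmful alone by LDH or WST-1, otherwise +1 if it reduces and -1 if it increases cisplatin killing; a gene is active when both siRNAs agree (sum +2 or -2)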
# Meaning of the calls: active = both siRNAs shift cisplatin killing the same way; inactive = no consistent shift, or siRNA harmful alone
# This is an unselected part of about 23,000 deposited reagents. Over the whole deposit, 455 (2%) got an active call. 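Active includes both protection and sensitisation; some change values fall well beyond the stated -50 to +50 range.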 The numbers tell different reagents against one gene apart. The record does not give: the amount of reagent.
gene,reagent no.,two-siRNA summed score (-2 to +2),mean protection from cisplatin (shift in death) (%),"protection from cisplatin (shift in death), siRNA C (%)","protection from cisplatin (shift in death), siRNA D (%)",Call
CDAN1 (codanin 1),1,0,-0.7,-4.4,3,inactive
LOC441199,1,0,6.9,6.7,7.1,inactive
DDHD1 (DDHD domain containing 1),1,0,5.9,5.9,5.8,inactive
AGR3,1,0,-4.7,-1,-8.4,inactive
PRIM2 (DNA primase subunit 2),1,0,11.4,9.8,13.1,inactive
MSRB2 (methionine sulfoxide reductase B2),1,1,24.7,8.9,40.6,inactive
EVX1 (even-skipped homeobox 1),1,0,-4.1,-11.4,3.2,inactive
OR1L3 (olfactory receptor family 1 subfamily L member 3),1,0,21.6,12.8,30.4,inactive
SDCCAG8 (SHH signaling and ciliogenesis regulator SDCCAG8),1,1,16.3,5.4,27.3,inactive
RPS3A (ribosomal protein S3A),1,0,31.8,40.4,23.2,inactive
PTCD2 (pentatricopeptide repeat domain 2),1,0,9.6,9.3,10,inactive
FLJ34306,1,0,8.6,10.2,7,inactive
DEFB119 (defensin beta 119),1,1,15.8,12.8,18.8,inactive
LOC387940,1,0,2.9,5,0.9,inactive
LOC440286,1,0,6.4,15.4,-2.6,inactive
ITSN2 (intersectin 2),1,0,15.4,20.2,10.5,inactive
IGFL4 (IGF like family member 4),1,0,-5.4,-19.7,9,inactive
IGFL4 (IGF like family member 4),2,1,8.6,8.9,8.3,inactive
LOC440965,1,0,15.9,10.4,21.3,inactive
LINC00999 (long independently transcribed non-coding RNA 999),1,0,12.5,15.7,9.2,inactive
TGFBI (transforming growth factor beta induced),1,0,14.5,5.8,23.3,inactive
CSMD2 (CUB and Sushi multiple domains 2),1,0,1.1,-5.8,8,inactive
AKAP13 (A-kinase anchoring protein 13),1,-1,0.9,-9,10.9,inactive
TAF6L (TATA-box binding protein associated factor 6 like),1,0,12.8,8.7,16.9,inactive
SLC31A1,1,1,6.7,0.5,12.8,inactive
BZW1 (basic leucine zipper and W2 domains 1),1,0,6.6,1.7,11.4,inactive
PTDSS1 (phosphatidylserine synthase 1),1,0,3.3,8,-1.3,inactive
CHD8 (chromodomain helicase DNA binding protein 8),1,-1,-4.5,10.5,-19.5,inactive
FAM221A (family with sequence similarity 221 member A),1,1,14.6,26.2,2.9,inactive
ERN2 (endoplasmic reticulum to nucleus signaling 2),1,0,2.5,17.4,-12.5,inactive
ITM2C (integral membrane protein 2C),1,0,-5.4,-8.5,-2.3,inactive
SYNJ2 (synaptojanin 2),1,0,-5.3,0,-10.6,inactive
MFAP5 (microfibril associated protein 5),1,0,-3,-10.1,4,inactive
LOC392559,1,0,2,-7.9,11.9,inactive
FGF1 (fibroblast growth factor 1),1,-1,-7,-13.8,-0.1,inactive
CDC26 (cell division cycle 26),1,0,6.7,-0.7,14,inactive
LOC401548,1,0,9.4,7.9,10.8,inactive
HNRNPCL2 (heterogeneous nuclear ribonucleoprotein C like 2),1,0,10.7,15.4,6.1,inactive
RPL10A (ribosomal protein L10a),1,0,15.5,39.5,-8.5,inactive

Laid out differently: results already given
gene	reagent no.	two-siRNA summed score (-2 to +2)	mean protection from cisplatin (shift in death) (%)	protection from cisplatin (shift in death), siRNA C (%)	protection from cisplatin (shift in death), siRNA D (%)	Call
LOC441199	1	0	6.9	6.7	7.1	inactive
DDHD1 (DDHD domain containing 1)	1	0	5.9	5.9	5.8	inactive
AGR3	1	0	-4.7	-1	-8.4	inactive
PRIM2 (DNA primase subunit 2)	1	0	11.4	9.8	13.1	inactive
MSRB2 (methionine sulfoxide reductase B2)	1	1	24.7	8.9	40.6	inactive
